PubChem BioAssay AID1224828, NIAID, 2016

- Aim: 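Knock-downs that increase or decrease LPS-induced p65 nuclear translocation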 (primary screen)
- Cell system: mouse RAW264.7 G9 macrophage reporter cells (GFP-p65, Tnf promoter-mCherry)
- Knock-down reagent: siRNA pool against mouse genes, 100 nM
- Time to read-out: 2 days siRNA transfection, then 40 min LPS before fixation
- Conditions: LPS (Salmonella minnesota R595) at 10 ng/ml
- Read-out: 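Imaged p65 nuclear translocation ratio, normalised to the plate median, converted to robust z-scores and averaged across two replicates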
- Direction: p65 translocation robust z-score: higher = more nuclear NF-kappaB p65 after LPS than the plate median; nuclear/cytoplasmic p65 ratio: higher = more nuclear NF-kappaB p65
- Rule for the call: 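Active if robust z is above 3.3 (negative regulators) or below -1.56, the Tlr4 control median (positive regulators); activity score 50 or more; control wells not called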
- Meaning of the calls: active = hit (p65 shift raised or lowered); inactive = no clear change
The deposit covers about 17,000 reagents; shown is an unselected part. 762 of all reagents (4.5%) were called active. 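Active calls include both raised and lowered p65 entry, mostly lowered; wells with fewer than 50 cells lack a z-score.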 Raw values vary from plate to plate and are shown uncorrected.

target gene | p65 translocation robust z-score | nuclear/cytoplasmic p65 ratio, rep 1 | nuclear/cytoplasmic p65 ratio, rep 2 | low cell count flag | Call
Enpp4 (ectonucleotide pyrophosphatase/phosphodiesterase 4) | -0.42 | 1.33 | 1.3 | enough cells to score | inactive
Rabl3 (RAB, member RAS oncogene family-like 3) | -0.03 | 1.38 | 1.21 | enough cells to score | inactive
Mug1 (murinoglobulin 1) | -0.4 | 1.73 | 1.39 | enough cells to score | inactive
Pnrc1 (proline-rich nuclear receptor coactivator 1) | 0.75 | 1.67 | 1.44 | enough cells to score | inactive
Col6a6 (collagen, type VI, alpha 6) | 0.7 | 1.56 | 1.34 | enough cells to score | inactive
Card19 (caspase recruitment domain family, member 19) | 0.6 | 1.57 | 1.58 | enough cells to score | inactive
Or4b12 (olfactory receptor family 4 subfamily B member 12) | 1.64 | 1.75 | 1.73 | enough cells to score | inactive
Etf1 (eukaryotic translation termination factor 1) | -1.84 | 1.21 | 1.14 | enough cells to score | active
Cdc14b (CDC14 cell division cycle 14B) | 0.33 | 1.59 | 1.35 | enough cells to score | inactive
Sergef (secretion regulating guanine nucleotide exchange factor) | 0.42 | 1.37 | 1.55 | enough cells to score | inactive
4930524B15Rik (RIKEN cDNA 4930524B15 gene) | – | 1.4 | 1.11 | fewer than 50 cells per well; well left out of scoring | inactive
Gm4792 (predicted gene 4792) | – | 1.4 | 1.4 | fewer than 50 cells per well; well left out of scoring | inactive
Elovl6 (ELOVL fatty acid elongase 6) | 0.76 | 1.49 | 1.53 | enough cells to score | inactive
Or1e26 (olfactory receptor family 1 subfamily E member 26) | 1.02 | 1.73 | 1.59 | enough cells to score | inactive
Or10g9 (olfactory receptor family 10 subfamily G member 9) | – | 1.37 | 1.28 | fewer than 50 cells per well; well left out of scoring | inactive
Gfra2 | -0.84 | 1.52 | 1.31 | enough cells to score | inactive
Vmn1r188 (vomeronasal 1 receptor 188) | – | 1.42 | 1.22 | fewer than 50 cells per well; well left out of scoring | inactive
Taf5 (TATA-box binding protein associated factor 5) | -0.41 | 1.47 | 1.45 | enough cells to score | inactive
Uts2b (urotensin 2B) | – | 1.25 | 1.08 | fewer than 50 cells per well; well left out of scoring | inactive
Entpd5 (ectonucleoside triphosphate diphosphohydrolase 5) | 0.49 | 1.57 | 1.4 | enough cells to score | inactive
Aqp1 (aquaporin 1) | -0.53 | 1.56 | 1.52 | enough cells to score | inactive
Arid5a (AT-rich interaction domain 5A) | -0.41 | 1.48 | 1.52 | enough cells to score | inactive
Ormdl2 (ORM1-like 2 (S. cerevisiae)) | -0.28 | 1.4 | 1.21 | enough cells to score | inactive
Tnnc2 (troponin C2, fast) | -0.68 | 1.49 | 1.36 | enough cells to score | inactive
Marcksl1 (MARCKS-like 1) | – | 1.21 | 0.972 | fewer than 50 cells per well; well left out of scoring | inactive
Or6b9 (olfactory receptor family 6 subfamily B member 9) | – | 1.48 | 1.19 | fewer than 50 cells per well; well left out of scoring | inactive
Fbxl3 (F-box and leucine-rich repeat protein 3) | -1.08 | 1.29 | 1.26 | enough cells to score | inactive
Polr1b (polymerase (RNA) I polypeptide B) | 0.14 | 1.41 | 1.26 | enough cells to score | inactive
Serpina3c (serine (or cysteine) peptidase inhibitor, clade A, member 3C) | -0.02 | 1.41 | 1.24 | enough cells to score | inactive
Vmn1r75 (vomeronasal 1 receptor 75) | – | 1.51 | 1.21 | fewer than 50 cells per well; well left out of scoring | inactive
Setd5 (SET domain containing 5) | – | 1.41 | 1.34 | fewer than 50 cells per well; well left out of scoring | inactive
Bnip3 (BCL2/adenovirus E1B interacting protein 3) | -0.03 | 1.63 | 1.59 | enough cells to score | inactive
Ints11 (integrator complex subunit 11) | – | 1.35 | 1.58 | fewer than 50 cells per well; well left out of scoring | inactive
Scgb2b27 (secretoglobin, family 2B, member 27) | 1.79 | 1.75 | 1.69 | enough cells to score | inactive
Col5a1 (collagen, type V, alpha 1) | -0.47 | 1.39 | 1.33 | enough cells to score | inactive
Derl1 (Der1-like domain family, member 1) | -0.75 | 1.44 | 1.34 | enough cells to score | inactive
Pcdhb17 (protocadherin beta 17) | -1 | 1.34 | 1.13 | enough cells to score | inactive
Or6c212 (olfactory receptor family 6 subfamily C member 212) | – | 1.42 | 1.47 | fewer than 50 cells per well; well left out of scoring | inactive
Etv4 (ets variant 4) | 0.14 | 1.47 | 1.39 | enough cells to score | inactive
Tmc1 (transmembrane channel-like gene family 1) | -0.37 | 1.47 | 1.47 | enough cells to score | inactive
BC048679 (cDNA sequence BC048679) | – | 1.64 | 1.26 | fewer than 50 cells per well; well left out of scoring | inactive
Cyp7a1 (cytochrome P450, family 7, subfamily a, polypeptide 1) | -0.78 | 1.49 | 1.62 | enough cells to score | inactive
Polr1a (polymerase (RNA) I polypeptide A) | – | 1.17 | 1.05 | fewer than 50 cells per well; well left out of scoring | inactive
Ifna9 (interferon alpha 9) | 0.7 | 1.6 | 1.4 | enough cells to score | inactive
Mvd (mevalonate (diphospho) decarboxylase) | -1.48 | 1.47 | 1.19 | enough cells to score | inactive
Ccdc90b (coiled-coil domain containing 90B) | – | 1.52 | 1.39 | fewer than 50 cells per well; well left out of scoring | inactive
Slc25a25 | – | 1.23 | 1.19 | fewer than 50 cells per well; well left out of scoring | inactive
H1f1 (H1.1 linker histone, cluster member) | 0.7 | 1.69 | 1.66 | enough cells to score | inactive
Tiam1 (T cell lymphoma invasion and metastasis 1) | 0.37 | 1.47 | 1.67 | enough cells to score | inactive
Art3 (ADP-ribosyltransferase 3) | 0.92 | 1.8 | 1.72 | enough cells to score | inactive
Gucy1a2 (guanylate cyclase 1, soluble, alpha 2) | 0.35 | 1.48 | 1.42 | enough cells to score | inactive
Zwint (ZW10 interactor) | -0.45 | 1.48 | 1.74 | enough cells to score | inactive
Tmem71 (transmembrane protein 71) | -2.38 | 1.15 | 1.42 | enough cells to score | active
Pask (PAS domain containing serine/threonine kinase) | -0.19 | 1.59 | 1.35 | enough cells to score | inactive
Arhgap11a (Rho GTPase activating protein 11A) | 1.39 | 1.51 | 1.85 | enough cells to score | inactive
Fgfr1op2 (FGFR1 oncogene partner 2) | 0.95 | 1.81 | 1.52 | enough cells to score | inactive
Or5ac21 (olfactory receptor family 5 subfamily AC member 21) | 0.1 | 1.57 | 1.48 | enough cells to score | inactive
Tas2r115 (taste receptor, type 2, member 115) | -0.05 | 1.36 | 1.07 | enough cells to score | inactive
Or6c208 (olfactory receptor family 6 subfamily C member 208) | – | 1.3 | 1.21 | fewer than 50 cells per well; well left out of scoring | inactive
